Assay results taken from PubChem BioAssay AID2685 (National Center for Advancing Translational Sciences (NCATS), 2010).
This is one part of the list. The main result of the screen is listed elsewhere. These columns were measured beside it and carry no call. Most of these compounds were active or inconclusive in the main read-out, so they are no random draw. The note in brackets gives the kind of curve behind each potency; many fits are weak.

Assay: qHTS Assay for Lipid Storage Modulators in Drosophila S3 Cells;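 on cell number change: cells counted by Cell Tracker Red CMTPX staining in the red channel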
Details: BODIPY lipid droplet fluorescence, 18-24 h; for cell number change: measured here: cell count max response, cells fed with added oleic acid
Outline: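 Drosophila S3 cells loaded with oleic acid (400 uM, as added) and compounds at several concentrations; lipid droplets imaged by 488-nm laser-scanning cytometry, 500–530 nm intensity and object ratio to cell channel. Percent activity normalized to 20 uM Triacsin C.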

[1] = measured here: cell number channel AC50, cells fed with added oleic acid
[2] = measured here: lipid fluorescence (Fed channel) AC50, cells fed with added oleic acid

| Structure (SMILES) | cell number change [%] | AC50 [1] | AC50 [2] |
| --- | --- | --- | --- |
| CCN(Cc1ccncc1)Cc1nc(-c2ccc(C(=O)OC)cc2)no1 | -11.4 | – | – |
| Cc1nc(-c2cccc(N)c2)cs1 | 50.4 | 25.9 µM [rising, single point] | – |
| CCn1c(SCC(=O)Nc2cccc(OC)c2)nc2ccccc2c1=O | -35.4 | 0.651 µM [falling, partial curve, poor fit] | 0.411 µM [falling, single point] |
| Cc1cccc(CCNC(=O)CNS(=O)(=O)c2ccc3nc(C)sc3c2)c1 | 6.8 | – | 20.6 µM [rising, partial curve] |
| C/C(=N\OC(=O)Nc1ccc(Cl)cc1)c1ncc(C(F)(F)F)cc1N1CCOCC1 | 42.3 | 9.2 µM [rising, partial curve, poor fit] | – |
| CCc1nn(CC(=O)N2CCN(c3cc(C)ccc3C)CC2)c(=O)c2cc3occc3n12 | -2.65 | – | 6.51 µM [falling, single point] |
| Cc1nc(-c2ccc(S(=O)(=O)Nc3ccc(Br)cc3F)cc2)co1 | 0.917 | – | – |
| Cc1ccc(NC2CCCN(C(=O)c3ccc(C)c(N4CCNC4=O)c3)C2)cc1C (stereo unspecified) | 46.2 | 18.4 µM [rising, single point] | 29.1 µM [rising, single point] |
| COc1cc(/C=N/N2CCN(c3ccccc3OC)CC2)ccc1OC(C)=O | 21.2 | 7.31 µM [rising, partial curve] | 0.58 µM [falling, single point] |
| C=CCSc1ncc(CO)n1Cc1ccccc1 | -39.1 | 0.231 µM [falling, partial curve] | 0.366 µM [falling, partial curve] |
| CC(C)[C@H](NC(=O)OCc1ccccc1)C(=O)OCc1ccccc1 | 1.74 | – | – |
| Cc1noc(NS(=O)(=O)c2ccc(NC(=O)CCC3CCCC3)cc2)c1C | – | – | 0.092 µM [falling, full curve, poor fit] |
| COc1ccc(C(=O)O)cc1S(=O)(=O)Nc1cccc(C(F)(F)F)c1 | – | – | 23.1 µM [falling, partial curve] |
| CCn1c2ccccc2c2cc(C3C(C#N)=C(N)OC4=C3C(=O)CC(C)(C)C4)ccc21 (stereo unspecified) | 10.1 | – | 3.66 µM [rising, single point] |
| O=C(CCC(=O)N1CCN(S(=O)(=O)c2ccc(Cl)cc2)CC1)Nc1cccc(Br)c1 | 7.38 | – | – |
| CN(C)CCCN=C(NO)c1ccc(Cl)cc1Cl | -42.3 | 0.082 µM [falling, full curve] | 0.461 µM [falling, full curve] |
| Cc1nn(-c2cccc(C(=O)O)c2)c(C)c1Oc1ccccc1O | 3.19 | – | 4.11 µM [falling, single point] |
| CCN1C(=O)/C(=C\C=C2/C=CC=CN2CC)SC1=S | -2.31 | – | 1.03 µM [rising, full curve, poor fit] |
| COCCOC(=O)c1c(C)oc2ccc(NS(=O)(=O)c3cccs3)cc12 | 17.5 | – | 0.058 µM [rising, full curve] |

| Structure (SMILES) | cell number change [%] | AC50 [1] | AC50 [2] |
| --- | --- | --- | --- |
| CC(=O)c1c(NCc2ccccc2)nc(=O)n(-c2ccccc2)c1C | 6.14 | – | 2.91 µM [rising, full curve] |
| CN(Cc1ccccc1Br)C(=O)CN1C(=O)NC2(CCCCCC2)C1=O | -30.1 | 29.1 µM [falling, single point] | 4.11 µM [falling, single point] |
| Nc1nc2c(ncn2C2C[C@H](O)[C@@H](CO)O2)c(=O)[nH]1 (stereo partly specified) | -44 | 11.6 µM [falling, partial curve] | 18.4 µM [falling, partial curve, poor fit] |
| Cc1ccc(N(Cc2cc3ccc(C)cc3[nH]c2=O)C(=O)c2cccs2)cc1 | 18.6 | 0.461 µM [rising, full curve, poor fit] | 0.326 µM [rising, full curve, poor fit] |
| Cn1cccc1/C=C1\CCC/C(=C\c2cccn2C)C1=O | -157 | 6.51 µM [rising, single point] | – |
| CCCc1nn(C)c(C(=O)Nc2ccc(Cl)cc2)c1Cl | 7.98 | – | 6.51 µM [rising, partial curve, poor fit] |
| CC(C)NC(=S)N/N=C/c1ccc2c(c1)OCCO2 | 16.9 | – | 1.16 µM [rising, partial curve] |
| Cc1ccc2nc(SCC(=O)Nc3cc(C(C)(C)C)nn3-c3ccccc3)[nH]c2c1 | -39.6 | 18.4 µM [falling, partial curve] | 20.6 µM [falling, partial curve] |
| CCCN(CCC)CC(O)COc1ccc([N+](=O)[O-])cc1 (stereo unspecified) | -20.7 | – | 2.91 µM [falling, partial curve] |
| COCc1nnc(NS(=O)(=O)c2c(C)cc(C)cc2C)s1 | – | – | 29.1 µM [falling, single point] |
| O=C(CN1C(=O)NC2(CCCc3ccccc32)C1=O)NC1CCCCC1 (stereo unspecified) | -36 | – | 25.9 µM [falling, partial curve, poor fit] |
| Cc1nc(SCc2ccccc2)c2oc3ccccc3c2n1 | 21.6 | – | 2.06 µM [rising, partial curve, poor fit] |
| Cc1cccc(NC(=S)N2CCN(c3ccccc3)CC2)c1 | 14.9 | – | 32.6 µM [rising, single point] |
| O=C(O)CC/C(=N/NC(=O)CNC(=O)Cc1ccccc1)c1ccccc1 | 3.52 | – | – |
| CCCS(=O)(=O)N1CCN(C(=O)c2cccs2)CC1 | -96.7 | 20.6 µM [falling, partial curve] | 2.06 µM [falling, partial curve] |
| CCCN(CCC)S(=O)(=O)c1ccc(C(=O)Nc2ccc(OCC(=O)N3CCOCC3)cc2)cc1 | 20.1 | 0.082 µM [rising, full curve, poor fit] | – |
| COc1ccc(OC)c2[nH]c(=O)c(CCNC(C)=O)cc12 | -82.2 | 1.46 µM [falling, partial curve] | 20.6 µM [falling, partial curve] |
| COc1cccc2[nH]c(C(=O)NN)c(N)c12 | -17.3 | – | 29.1 µM [falling, single point] |
| COc1ccc(Cl)cc1NS(=O)(=O)c1cccc(C(=O)NCC(C)(C)N2CCOCC2)c1 | -2.06 | – | 1.46 µM [rising, partial curve, poor fit] |

5 structures out of the list, arranged by SMILES length, high to low.

| Structure (SMILES) | cell number change [%] | AC50 [1] | AC50 [2] |
| --- | --- | --- | --- |
| Nc1nc2c(ncn2C2C[C@H](O)[C@@H](CO)O2)c(=O)[nH]1 (stereo partly specified) | -44 | 11.6 µM [falling, partial curve] | 18.4 µM [falling, partial curve, poor fit] |
| CC(=O)c1c(NCc2ccccc2)nc(=O)n(-c2ccccc2)c1C | 6.14 | – | 2.91 µM [rising, full curve] |
| COCc1nnc(NS(=O)(=O)c2c(C)cc(C)cc2C)s1 | – | – | 29.1 µM [falling, single point] |
| CC(C)NC(=S)N/N=C/c1ccc2c(c1)OCCO2 | 16.9 | – | 1.16 µM [rising, partial curve] |
| Cc1nc(SCc2ccccc2)c2oc3ccccc3c2n1 | 21.6 | – | 2.06 µM [rising, partial curve, poor fit] |

(next part)

| Structure (SMILES) | cell number change [%] | AC50 [1] | AC50 [2] |
| --- | --- | --- | --- |
| O=C(COC(=O)/C=C/c1ccc(F)cc1)Nc1cccc(S(=O)(=O)N2CCCC2)c1 | 1.94 | 1.16 µM [rising, single point] | – |
| O=C1N=C(N2C=CC(=C3C=CNC=C3)C=C2)/C(=C/N=NC(=O)c2ccccc2)S1 | -0.451 | – | 0.58 µM [falling, single point] |
| Cc1ccc(-c2nnn(CC(=O)N(c3ccccc3F)C(C(=O)NC3CCCC3)c3ccncc3)n2)o1 (stereo unspecified) | -15.8 | – | 4.47 µM [falling, partial curve, poor fit] |
| COc1ccc(Cl)cc1C(=O)NC1=NCCS1 | -5.61 | – | – |
| O=C(c1ccco1)N1CCC(c2nc3c(nnn3Cc3ccccc3Cl)c(=O)[nH]2)CC1 | -7.14 | – | – |
| O=c1[nH]c(SCc2ccc(Cl)cc2)nc2ccsc12 | 39.9 | 32.6 µM [rising, partial curve] | – |
| Cc1ccc(C)c(OCC(=O)NNC(=O)c2ccc(=O)[nH]c2)c1 | -14.7 | 0.517 µM [falling, full curve] | 0.517 µM [falling, full curve, poor fit] |
| C#CCCc1cscc1/C=[N+](\[O-])c1ccc(C(=O)OCC)cc1 | 11.2 | 0.00517 µM [falling, full curve, poor fit] | – |
| CCC(=O)c1ccc(OCC(=O)N(CC)CC2COc3ccccc3O2)cc1 (stereo unspecified) | – | 6.51 µM [rising, single point] | 0.58 µM [rising, single point] |
| COc1ccc(OC)c(-c2csc(NC(=O)COC(=O)C3(C)CC3(Cl)Cl)n2)c1 (stereo unspecified) | 6.13 | – | 0.651 µM [falling, full curve, poor fit] |
| Cc1cc(C(=O)COC(=O)CC2Sc3ccccc3NC2=O)c(C)n1-c1cccc(C(F)(F)F)c1 (stereo unspecified) | -5.65 | – | 29.1 µM [falling, single point] |
| COc1c(O)ccc2c1CN1CCc3cc4c(cc3C1C2)OCO4 (stereo unspecified) | 8.6 | – | 13 µM [rising, partial curve, poor fit] |
| Nc1cccc(NC(=O)c2cccs2)c1 | -1.62 | – | 3.26 µM [rising, single point] |
| O=C(CN1C(=O)C(=O)N(Cc2ccco2)C1=O)NC1CCCCC1 | -67.9 | 1.16 µM [falling, partial curve] | – |
| CN(C(=O)COC(=O)c1ccc(CN2CCCC2=O)cc1)c1ccccc1 | 0.388 | – | 0.0082 µM [rising, full curve, poor fit] |
| COc1ccc(C(=O)N2CCCCC2)cc1S(=O)(=O)Nc1ccccc1 | -0.287 | – | – |
| CN(C)/C=C/C(=O)c1cnc(-c2ccc(Cl)cc2)s1 | 5.14 | – | 29.1 µM [rising, partial curve, poor fit] |
| COc1ccccc1Nc1ncc(C(=O)N2CCN(Cc3ccc(OC)c(OC)c3OC)CC2)c2ccccc12 | 6.41 | – | 29.1 µM [falling, single point] |
| CC(=O)N1CCN(S(=O)(=O)c2cccc(C(=O)OCC(=O)N(CCC#N)c3ccc(F)cc3)c2)CC1 | -36.5 | 29.1 µM [falling, single point] | 0.651 µM [falling, single point] |
